Source: PubChem BioAssay AID2685 (National Center for Advancing Translational Sciences (NCATS), 2010)
The whole screen tested about 320,000 compounds, of which about 2,100 (0.66%) were called active. Inconclusive results, whose numbers are uncertain, are shown with a selection of clear calls. The call rests on the fitted dose curve; in most records, active means well fitted inhibition curve with a large enough effect in the signal ratio, with a control signal flat (not every such curve was filed as active); inconclusive means small, poorly fitted or top-dose-only effect, or effect the other way, or a change in a side signal; inactive means flat fitted curve, though single readings scatter; the % refers to the signal ratio. Potencies beside an inconclusive call are fits to weak or partial responses and may not hold up.
On the % scale 0 is the no-effect control and ±100 the full control effect; potency means the concentration at half of the fitted maximal effect.

Experiment: qHTS Assay for Lipid Storage Modulators in Drosophila S3 Cells
Conditions: BODIPY lipid droplet fluorescence, 18-24 h, cells fed with added oleic acid; lipid storage change, negative = inhibition: at 46.1 µM (top of the series) unless noted
In short: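 Drosophila S3 cells got compounds at several concentrations plus oleic acid (400 uM solution). Laser-scanning cytometry with 488 nm excitation read lipid droplets at 500-530 nm and cells at 575-640 nm. Percent activity was relative to 20 uM Triacsin C.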
With `O=C(NCCN1C(=O)CSC1=O)c1ccccc1` the Potency was inconclusive: 25.9 µM [falling, single point]. In the case of `O=[N+]([O-])c1ccccc1CSc1nc2ccccc2o1`, the Potency is reported as inconclusive: 13 µM [activator, partial curve]. In the case of `O=C(NCC1OCCc2ccccc21)c1ccc(NC(=O)c2ccc(Cl)cc2)cc1` (centres undefined), the lipid storage change, negative = inhibition is reported as inconclusive: -87.5%. In the case of `Oc1ccccc1C1=Nc2ccccc2N=C(c2ccco2)C1`, the Potency is reported as inconclusive: 2.91 µM [activator, partial curve]. For `Cc1c(C)c2c(OCC(=O)N3CCC[C@H]3C(=O)O)cc3c(c2oc1=O)CCC(C)(C)O3`, the Potency was inconclusive: 3.66 µM [activator, full curve]. For `CCOc1ccc(-c2nnc3n2N=C(c2ccc(OC)cc2)CS3)cc1`, the lipid storage change, negative = inhibition was inconclusive: -46.5%. In the case of `COc1ccc(-c2cnnc(N/N=C/c3ccc(O)cc3)n2)cc1`, the lipid storage change, negative = inhibition is reported as inconclusive: 13.6%. With `Oc1ccc(/C=N/N2CCCCC2)c(O)c1O` the lipid storage change, negative = inhibition was inconclusive: 2.56%. In the case of `CC1CCCC(C)N1CCCNC(=O)Cn1cc2c(n1)CCCC2` (centres undefined), the Potency is reported as inconclusive: 0.651 µM [activator, single point]. In the case of `COc1ccc(OC)c(N)c1`, the Potency is reported as inconclusive: 2.59 µM [activator, full curve, poor fit]. With `CCc1ccc(NC(=O)[C@H](Cc2c[nH]c3ccccc23)NC(=O)[C@@H]2Cc3ccccc3CN2)cc1` the lipid storage change, negative = inhibition was inconclusive: -38.7%. With `O=C(NCC(=O)N1CCCC(C(F)(F)F)C1)c1ccc(Oc2ccccc2)cc1` (centres undefined) the Potency was inconclusive: 29.1 µM [activator, single point]. In the case of `COc1ccccc1NC(=O)CSc1nc(N)cc(N)n1`, the Potency is reported as inconclusive: 10.3 µM [activator, partial curve]. In the case of `Cc1cc(C(=O)c2ccc(C(C)(C)C)cc2)c(NC(=O)CCl)s1`, the Potency is reported as inconclusive: 29.1 µM [falling, single point]. For `COc1cccc(CN2CCN(C(c3ccccc3)c3ccccc3)CC2)c1O`, the Potency was inconclusive: 20.6 µM [falling, single point]. In the case of `CCOc1ccc(NC(=O)CN(C)C(=O)CC(NC(=O)c2ccccc2)c2ccccc2)cc1OCC` (centres undefined), the Potency is reported as inconclusive: 14.6 µM [rising, partial curve]. With `Clc1cccc(Nc2ncnc3ccc(Br)cc23)c1` the lipid storage change, negative = inhibition was inconclusive: 12.8%. With `COc1ccc(Cl)cc1NC(=O)C1CCN(C(=O)Nc2ccccc2)CC1` the lipid storage change, negative = inhibition was inconclusive: -31%. With `CCC(CC)C(=O)Nc1cccc(C(=O)NCCc2ccc(S(N)(=O)=O)cc2)c1` the Potency was inconclusive: 0.116 µM [falling, full curve]. For `Fc1ccccc1N1CCN(CCCNc2ccc3nncn3n2)CC1`, the lipid storage change, negative = inhibition was inconclusive: -5.9%. For `CCCCN(C)C(=O)Cn1nc(Cc2ccncc2)c2ccccc2c1=O`, the lipid storage change, negative = inhibition was inconclusive: 12.3%. For `COC(=O)c1ccccc1N1C(=O)[C@@H]2C(c3ccc(Br)cc3)=NO[C@@H]2C1=O`, the lipid storage change, negative = inhibition was inconclusive: -23%. For `COC(=O)c1ccccc1NC(=O)CNc1cc(Cl)ccc1N1CCOCC1`, the lipid storage change, negative = inhibition was inconclusive: -14.9%. For `CCC1(C)Cc2c(sc3c2c(=O)n(C)c2nnc(SCCc4ccccc4)n32)CO1` (centres undefined), the Potency was inconclusive: 0.58 µM [rising, partial curve]. With `CCN1CCN(S(=O)(=O)c2ccc(OC)c(NC(=O)c3ccccc3)c2)CC1` the lipid storage change, negative = inhibition was inconclusive: 45.2%. In the case of `O=C(NC1CC1)c1c[nH]c2ccc(S(=O)(=O)Nc3cccc(C(F)(F)F)c3)cc2c1=O`, the lipid storage change, negative = inhibition is reported as inconclusive: -26.4%. For `Cc1cc([N+](=O)[O-])nn1CCC(=O)Nc1nccs1`, the “lipid storage change, negative = inhibition” value was inactive: 15%. With `Cc1c(Nc2ccc(C=O)cc2)c(=O)n(-c2ccccc2)n1C` the lipid storage change, negative = inhibition was inconclusive: -3.14%. For `O=C(CNC(=O)Cc1ccccc1)NCC(=O)OCC(=O)c1ccccc1Cl`, the lipid storage change, negative = inhibition was inconclusive: -19.1%. For `CN(CC(=O)Nc1ccc(S(N)(=O)=O)cc1)Cc1ccccc1F`, the Potency was inconclusive: 29.1 µM [falling, single point]. In the case of `C=CCNC(=O)NC(=O)CN1C(=O)NC(c2ccccc2)(c2ccccc2)C1=O`, the Potency is reported as inconclusive: 2.31 µM [activator, partial curve]. In the case of `COC(=O)c1c[nH]n2c(=O)cc(CCl)nc12`, the lipid storage change, negative = inhibition is reported as inconclusive: 21.6%. With `CC(C)CC(C(=O)NCC1CCCO1)N(C(=O)Cn1nnc(-c2ccc(F)cc2)n1)c1cccc(C(F)(F)F)c1` (centres undefined) the lipid storage change, negative = inhibition was inconclusive: -19.9%. For `CCCS(=O)(=O)Nc1c(C(=O)OC)[nH]c2ccccc12`, the lipid storage change, negative = inhibition was inconclusive: 1.82%. In the case of `Cc1ccc(C(=O)OCC(=O)NC2CCCc3ccccc32)o1` (centres undefined), the lipid storage change, negative = inhibition is reported as inconclusive: 10.6%. With `COc1cc(C(=O)Nc2ccccc2C2COC(=O)C2=N)cc(OC)c1OC` (centres undefined) the lipid storage change, negative = inhibition was inconclusive: 18.3%. With `COc1cc2c3nnc(-c4ccc(F)cc4)c-3cn(Cc3ccccc3F)c2cc1OC` the Potency was inconclusive: 25.9 µM [falling, single point]. For `Cc1[nH]nc(SCC(=O)N2CCCCCC2)c1[N+](=O)[O-]`, the lipid storage change, negative = inhibition was inconclusive: 19.6% [at 9.22 µM]. With `Cc1ccc(C2NC(=O)c3c(sc4c3CCN(C)C4)N2)o1` (centres undefined) the Potency was inconclusive: 0.92 µM [falling, partial curve]. In the case of `CC(=O)c1ccc2c(c1)Nc1ccccc1S2`, the lipid storage change, negative = inhibition is reported as inconclusive: 53.4%. For `Cc1nnc(CN(C)C(=O)c2cc(COc3ccc(F)cc3Cl)on2)o1`, the Potency was inconclusive: 9.2 µM [activator, partial curve, poor fit]. For `COc1ccc(/C(C)=N/OCC(=O)N=Nc2c(O)[nH]c3ccccc23)cc1`, the Potency was inconclusive: 6.51 µM [falling, single point]. For `O=C(COC(=O)C1CCC(=O)N1)Nc1ccc(Oc2ccccc2)cc1` (centres undefined), the lipid storage change, negative = inhibition was inconclusive: -7.88%. With `CCOC(=O)C1=C(Nc2ccccc2)CC(C)(O)C(C(=O)OCC)C1c1ccccc1` (centres undefined) the Potency was inconclusive: 2.59 µM [falling, full curve, poor fit]. For `C[C@H](CO)NC(=O)[C@H](C)[C@@H]1C[C@@]1(C)[C@@H](NC(=O)OCc1ccccc1)c1ccccc1`, the lipid storage change, negative = inhibition was inconclusive: 20.8%. With `COc1ccc(S(=O)(=O)N2CCOCC2)cc1NC(=O)COC(=O)c1oc2ccccc2c1C` the lipid storage change, negative = inhibition was inconclusive: -49.3%. With `CCn1c(SCC(=O)Nc2ccccc2N2CCOCC2)nnc1-c1ccccc1` the Potency was inconclusive: 0.82 µM [activator, full curve, poor fit]. With `O=C1NC(C(=O)O)=CC(c2ccc([N+](=O)[O-])cc2)N1` (centres undefined) the Potency was inconclusive: 4.11 µM [falling, full curve, poor fit]. For `COc1ccc(OCC(=O)Nc2ccc3c(c2)C(=O)NC3=O)cc1`, the lipid storage change, negative = inhibition was inconclusive: 40.4%. In the case of `COc1ccc(CC(=O)N2CCN(S(=O)(=O)c3cccs3)CC2)cc1OC`, the lipid storage change, negative = inhibition is reported as inconclusive: -18.6%. For `COn1c(-c2ccccc2)c(C=O)c2ccccc21`, the lipid storage change, negative = inhibition was inconclusive: 9.37%. With `CC1CCCCC1NC(=O)CCc1nc2sc3c(c2c(=O)[nH]1)CCCC3` (centres undefined) the lipid storage change, negative = inhibition was “inconclusive”. For `CCSc1nnc(NC(=O)CCc2ccccc2)s1`, the Potency was inconclusive: 0.146 µM [activator, full curve, poor fit]. For `CC1CCN(CC(O)COC2CC(C)CCC2C(C)C)CC1` (centres undefined), the lipid storage change, negative = inhibition was inconclusive: 49.6%. With `COC(=O)c1ccc(OCCN2CCCCCC2)cc1` the lipid storage change, negative = inhibition was inconclusive: -12.7%. In the case of `Cn1c(SCc2ccc(F)cc2)nnc1-c1cccs1`, the Potency is reported as inconclusive: 0.0058 µM [falling, full curve, poor fit]. With `O=C1CCCC(O)=C1C1C2=C(CCCC2=O)Oc2ccccc21` (centres undefined) the Potency was inconclusive: 3.66 µM [falling, single point]. With `O=C(O)CC(C(=O)O)N1C(=O)/C(=C/C=C/c2ccco2)SC1=S` (centres undefined) the lipid storage change, negative = inhibition was inconclusive: -33.5%. For `CCCC1(C(=O)OCC)NC(c2ccc(O)cc2)C2C(=O)N(c3ccc4c(c3)OCCO4)C(=O)C21` (centres undefined), the Potency was active: 18.4 µM. With `O=C(Nc1nnc(S(=O)(=O)N2CCN(c3ccc(F)cc3)CC2)s1)c1ccccc1` the lipid storage change, negative = inhibition was inconclusive: 33.3%. In the case of `COC(=O)c1ccc(S(=O)(=O)N2CCCC2)o1`, the lipid storage change, negative = inhibition is reported as inconclusive: -8.71%. In the case of `CCC(CC)C(=O)Nc1ccc(-c2cn3cccnc3n2)cc1`, the lipid storage change, negative = inhibition is reported as inconclusive: -65.9%. In the case of `CCCOc1ccc(C(=O)CCN2CCN(C(=O)OCC)CC2)cc1`, the Potency is reported as inconclusive: 20.6 µM [falling, single point]. For `C=C1Cn2c(nnc2-c2ccc(Cl)cc2)S1`, the lipid storage change, negative = inhibition was inconclusive: 54.6%. In the case of `OCCN(Cc1ccccc1)Cc1ccc(Cl)cc1Cl`, the Potency is reported as inconclusive: 23.1 µM [falling, partial curve]. With `O=c1[nH]c2ccccc2nc1-c1ccc(Cl)cc1` the Potency was inconclusive: 5.17 µM [activator, partial curve, poor fit]. With `COc1ccccc1/C=C/c1onc(C)c1S(=O)(=O)N1CCC(C(=O)NC2CCCCCC2)CC1` the “outcome” value was “inactive [at 46.1 µM]”. With `O=Cc1ccc(OCc2ccc3ccccc3c2)cc1` the lipid storage change, negative = inhibition was inconclusive: -20%. In the case of `COc1ccc(-c2cc3ccc(OCC(C)=O)cc3oc2=O)cc1OC`, the Potency is reported as inconclusive: 0.0052 µM [activator, full curve, poor fit]. With `O=c1c2ccccc2ncn1-c1ccc([N+](=O)[O-])cc1[N+](=O)[O-]` the Potency was inconclusive: 29.1 µM [falling, single point]. With `O=C(CNc1ccc2ccccc2c1)N/N=C/c1ccncc1` the Potency was inconclusive: 6.51 µM [activator, single point]. In the case of `Cc1nc(-c2cccc(NC(=O)c3ccc(-n4cccn4)cc3)c2)cs1`, the Potency is reported as inconclusive: 29.1 µM [falling, single point]. With `Cc1ccc(SCC(=O)Nc2ccc(F)cc2[N+](=O)[O-])cc1C` the lipid storage change, negative = inhibition was inconclusive: -8.53%. In the case of `COc1cc(CNCCc2ccc(S(N)(=O)=O)cc2)ccc1OCc1ccc(Cl)cc1`, the lipid storage change, negative = inhibition is reported as inconclusive: -30.7%.
